The values below come from US9409983B2, “Methods and compositions involving PBEF inhibitors for lung inflammation conditions and diseases” (The Board of Trustess of the University of Illinois, priority 2009, dated 2016).

This series concerns C57BL/6 mice. Put plainly: rhPBEF challenge in limited ventilator-induced lung injury model (VILIa, 30 ml/kg). In kind it is in vivo, mouse. The method, then: The first VILI model was designed to produce limited lung injury (VILIa, tidal volume 30 ml/kg), thus allowing assessment of potential synergy with rhPBEF challenge. Male C57BL/6J B6 mice were anesthetized with ketamine/acepromazine, intubated and administered rhPBEF (20 μg/mouse) via an intratracheal (IT) route ˜30 min before ventilator placement (room air, tidal volume 30 ml/kg, 65 breaths/minute, 0 cm H2O PEEP) for 4 hr as previously described (Nonas et al., 2007; Moitra et al., 2007). Groups included a spontaneous breathing group (SB), a spontaneous breathing group challenged with rhPBEF (SB-rhPBEF), a high tidal ventilation group (VILIa), and a high tidal ventilation group with rhPBEF challenge (VILIa-rhPBEF) (n=4-6 all groups).
BAL fluid recovered as we previously described was used for multiple assays including total BAL protein, and BAL cell differentials (Peng et al., 2004). Tissue albumin content was assessed as previously described (Nonas et al., 2007). Cytokine levels in BAL fluid (IL-1β, IL-6, KC, MIP2, TNF-α) were analyzed by multiplex assays (Bio-Rad, Hercules, Calif., USA). BAL PBEF levels were assayed by a C-terminal ELISA (Phoenix Pharmaceuticals Inc. Belmont, Calif.) and analyzed using the SoftmaxPRO software (Molecular Devices Corp). (See Supplemental Methods).
We utilized two experimental models of ventilator-induce lung injury in these experiments. Our first approach (VILIa) utilized a VILI protocol with a tidal volume of 30 ml/kg designed to produce limited lung injury in order to allow assessment of potential synergism between delivered PBEF and mechanical ventilation-induced lung injury. Male C57BL/6J mice (8-12 wk old, 24.7±2.0 g) were weighed, anesthetized with ketamine/acepromazine, intubated using a 20 gauge catheter (Medex, Inc, Carlsbad, Calif.) and administered recombinant PBEF (20 μg/mouse in 1.5 μl water per gram body weight or vehicle equal volumes of water) via an intratracheal (IT) route ˜30 min before being placed on mechanical ventilation as we have previously described (Peng et al., 2004). Mice were then connected to Harvard Apparatus ventilator (Boston, Mass.) at room air, tidal volume of 30 ml/kg, 65 breaths/minute, and positive expiratory pressure (PEEP) 0 cm H2O for 4 hr. […] Normal saline (0.2 cc) was given via intraperitoneal injection at the beginning and 2 hours later to all ventilated mice and peak inspiratory pressure was monitored continuously. […]
Mice underwent bronchioalveolar lavage (BAL) of both lungs with Hank's balanced salt solution (1 mL/mouse), and the recovered BAL fluid was used for assays as we have previously described (Peng et al., 2004). Total protein was measured using the Bio-Rad DC Protein Assay (Bio-Rad Laboratories, Hercules, Calif.) (Peng et al., 2004). Protein results were expressed as mg/ml to allow for comparison to other studies. […] The BAL cells were resuspended in Hank's balanced salt solution and counted using a hemacytometer using standard techniques.
Re-suspended BAL cells from lung lavage were centrifuged using a Shandon Cytospin-2 at 600 RPM for 15 min, fixed by air-drying, and stained with Diff-Quik dye for differential counts (Peng et al., 2004). Stained cell slides were evaluated and differentially counted for each individual animal (lymphocyte, neutrophil or a macrophage). […]

Setting [1] is: after 4 hours of mechanical ventilation.

On to “rhPBEF: Recombinant human soluble PBEF/visfatin, a 52 kDa protein containing 465 amino acid residues, purchased from PeproTech”, for which the “PIP (peak inspiratory pressure): 0 hrs” value (0 hrs) is on record as 22.0 ± 1.8 mmHg. The “PIP (peak inspiratory pressure): 4 hrs” value (4 hrs) is listed as 23.4 ± 1.6 mmHg. Also, under setting [1], the PCO2 worked out at 28.6 ± 3.5 mmHg, the PO2 came to 97.8 ± 7.5 mmHg and the pH amounted to 7.38 ± 0.07.
